Source: paper PMC10499876, “Arabidopsis TCP4 transcription factor inhibits high temperature-induced homeotic conversion of ovules”

Target: T1, TCP4 DNA binding domain (Arabidopsis thaliana) (UniProt Q8LPR5)
T1 sequence (looked up, limits assumed): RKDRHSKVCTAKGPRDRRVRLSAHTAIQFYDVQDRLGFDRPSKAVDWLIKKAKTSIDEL
Test: EMSA
Conditions: EMSA: ~180 ng protein + ~200 ng dsDNA, 4 °C 20 min; DNA annealed in 25 mM Tris, 100 mM NaCl pH 8.0; 7% native PAGE in 0.5x TBE, ethidium bromide; recombinant protein; protein details: C-terminal His (pET-21b)

CGTCTTTATGGTCCATTCTATATG (double strand) [SPT promoter probe 2]
binding result: binds

GAAAATCTCGTGGTCCATCTAAAAAT (double strand) [SPT promoter probe 1]
binding result: binds

For at least one entry, the source does not settle the construct or the ends of the probe. At least one verdict was read from the data and is not stated in words by the source. Where a protein sequence is shown, tags need not be part of it.
